Source: the supplement of paper PMC4604168 (melanoma cell lines)
The list shows a part of the results. Repeats are few or missing, and single values can be far off.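 The apoptosis fraction was the count of cleaved-PARP antibody-stained nuclei relative to all DNA-stained nuclei, imaged in 1,536-well plates. Screening doses were set so most cells survived, and baseline and induced cleaved-PARP levels vary greatly across cell lines.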

What follows are compounds tested on IPC-298 (assay: cleaved PARP positive nuclei fraction relative to DMSO control; melanoma cells; higher = more apoptosis). Details: library dose: low library concentration; 72 h.

Row | SMILES | cleaved PARP positive nuclei fraction [%]
1 | Nc1ncn([C@H]2C[C@H](O)[C@@H](CO)O2)c(=O)n1 [decitabine] + Cc1cc(N2CCOCC2)cc2[nH]c(-c3c(NC[C@@H](O)c4cccc(Cl)c4)cc[nH]c3=O)nc12 [BMS536924] (first compound 0.1 µM, partner dose 0.2 µM) | 141
2 | Cn1c(=O)n(-c2ccc(C(C)(C)C#N)cc2)c2c3cc(-c4cnc5ccccc5c4)ccc3ncc21 + NCC(=O)Nc1ccc(-n2nc(C(F)(F)F)cc2-c2ccc3c(ccc4ccccc43)c2)cc1 [OSU03012] (first compound 0.004 µM, partner dose 1 µM) | 42.7
3 | CS(=O)(=O)CCNCc1ccc(-c2ccc3ncnc(Nc4ccc(OCc5cccc(F)c5)c(Cl)c4)c3c2)o1 [lapatinib] + O=C(Nc1cccc(Cl)c1)Nc1ncc(CCNc2ncnc3ccsc23)s1 [SNS314] (first compound 0.8 µM, partner dose 0.0008 µM) | 46.4
4 | CN1CCN(c2ccc3nc(-c4c(N)c5c(F)cccc5[nH]c4=O)[nH]c3c2)CC1 [Dovitinib] + CN(C)S(=O)(=O)c1ccc2c(c1)/C(=C/c1cc3c([nH]1)CCCC3)C(=O)N2 [SU6656] (first compound 0.1 µM, partner dose 0.4 µM) | 98.9
5 | C[C@@H](Oc1cc(-c2cnn(C3CCNCC3)c2)cnc1N)c1c(Cl)ccc(F)c1Cl [Crizotinib] + Cn1cncc1[C@@](N)(c1ccc(Cl)cc1)c1ccc2c(c1)c(-c1cccc(Cl)c1)cc(=O)n2C [tipifarnib] (first compound 0.2 µM, partner dose 0.01 µM) | 155
6 | CO[C@H]1C[C@@H]2CC[C@@H](C)[C@@](O)(O2)C(=O)C(=O)N2CCCC[C@H]2C(=O)O[C@H]([C@H](C)C[C@@H]2CC[C@@H](OCCO)[C@H](OC)C2)CC(=O)[C@H](C)/C=C(\C)[C@@H](O)[C@@H](OC)C(=O)[C@H](C)C[C@H](C)/C=C/C=C/C=C/1C [everolimus] + O=C(Nc1cccc(Cl)c1)Nc1ncc(CCNc2ncnc3ccsc23)s1 [SNS314] (first compound 0.02 µM, partner dose 0.0008 µM) | 186
7 | O=C(O)c1ccc2c(c1)nc(Nc1cccc(Cl)c1)c1ccncc12 + NC(=O)Nc1cc(-c2cccc(F)c2)sc1C(=O)N[C@H]1CCCNC1 [AZD7762] (first compound 0.4 µM, partner dose 0.02 µM) | 32.1
8 | Cn1c(=O)n(-c2ccc(C(C)(C)C#N)cc2)c2c3cc(-c4cnc5ccccc5c4)ccc3ncc21 + O=C(O)c1ccc(-c2c[nH]c3ncc(-c4ccccc4)cc23)cc1C1CCCC1 [GSK650394] (first compound 0.004 µM, partner dose 0.16 µM) | 47.5
9 | O=C(O)c1ccc2c(c1)nc(Nc1cccc(Cl)c1)c1ccncc12 + O=C(O)c1ccc(-c2c[nH]c3ncc(-c4ccccc4)cc23)cc1C1CCCC1 [GSK650394] (first compound 0.4 µM, partner dose 0.16 µM) | 197
10 | CC(C)C[C@H](NC(=O)[C@H](Cc1ccccc1)NC(=O)c1cnccn1)B(O)O [Bortezomib] + O=C(CCCCCCC(=O)Nc1ccccc1)NO [vorinostat] (first compound 0.001 µM, partner dose 0.08 µM) | 72.3
11 | O=C(O)c1ccc2c(c1)nc(Nc1cccc(Cl)c1)c1ccncc12 + O=C(Nc1cccc(Cl)c1)Nc1ncc(CCNc2ncnc3ccsc23)s1 [SNS314] (first compound 0.4 µM, partner dose 0.0008 µM) | 92.8
12 | Nc1nc(F)nc2c1ncn2[C@@H]1O[C@H](CO)[C@@H](O)[C@@H]1O [fludarabine] + C=CCn1c(=O)c2cnc(Nc3ccc(N4CCN(C)CC4)cc3)nc2n1-c1cccc(C(C)(C)O)n1 [MK1775] (first compound 0.2 µM, partner dose 0.02 µM) | 195
13 | Nc1ccn([C@@H]2O[C@H](CO)[C@@H](O)C2(F)F)c(=O)n1 [gemcitabine] + COc1cc(Nc2ncc(F)c(Nc3ccc4c(n3)NC(=O)C(C)(C)O4)n2)cc(OC)c1OC [Tamatinib] (first compound 0.0004 µM, partner dose 0.4 µM) | 323
14 | Cn1c(=O)n(-c2ccc(C(C)(C)C#N)cc2)c2c3cc(-c4cnc5ccccc5c4)ccc3ncc21 + COc1cc2c(Oc3ccc4[nH]c(C)cc4c3F)ncnc2cc1OCCCN1CCCC1 [cediranib] (first compound 0.004 µM, partner dose 0.4 µM) | 47.2

A few values from the entries so far.
O=C(O)c1ccc2c(c1)nc(Nc1cccc(Cl)c1)c1ccncc12 + NC(=O)Nc1cc(-c2cccc(F)c2)sc1C(=O)N[C@H]1CCCNC1 [AZD7762] (first compound 0.4 µM, partner dose 0.02 µM) | cleaved PARP positive nuclei fraction [%]: 32.1
O=C(O)c1ccc2c(c1)nc(Nc1cccc(Cl)c1)c1ccncc12 + O=C(O)c1ccc(-c2c[nH]c3ncc(-c4ccccc4)cc23)cc1C1CCCC1 [GSK650394] (first compound 0.4 µM, partner dose 0.16 µM) | cleaved PARP positive nuclei fraction [%]: 197
